# Source: the supplement of paper PMC8728848
# The other results are listed elsewhere or left out.
# B1: PX14343F-bfa-562-20-562 (Bacteroides fragilis) (protein)
# chain: CDDFLDSFPQDTVTNENFWKSKEDADKVLVDIYASLLPKDAIFFDEAMSDNAYLVWDWWGGAQQVANGSYTTSGEIPTNRWNGSYEVIRKCWFLLEGIEKIEDISEQDKNKIIGETYFMLAYNYYVLTSYFGDVPLVTKTLAIPESKQLVRTPKAEVVDYAINKLKEAAVMLEGLSQEKGRVTADACRFLIARMYLYNGDYSNVLETVKLLEGKYQLYREGDTPYEDLFSGVAENSCEVILSVVCDKRVGEIYTSHGGNGIMLLKGITGEDPYRGVTPSGSLVDAYPMADGRLIHEAGSSYDPKKPYEGRDPRFYQSIVYPTGQIKYLDVETGTVKERLYDPEDPTTVPEHQYNYSQPSATGYMWNKYIDYSVYAMNSVWDCTNDIIVFRYADVLLMKAEALLQTKGESAKEEVCNLIDQLRDRCSCGRVHRENYNSKDELMELLKNERRIELANEGLRYMDLIRWKDAEKNTIVTGVGLTGQMYGAYMRKDGVGKDDKTVDVDNTPRRYIETRYFNASKGYLFPIPQKERDLNPNLTQNPNW
# Legend:
# Test in all cases: glycan array binding signal (z-score within array); higher = stronger binding
# Settings in all cases: glycan notation: IUPAC condensed, linker removed
# [1] = target: Neu5Ac(a2-3)Gal(b1-4)GlcNAc(b1-6)GalNAc
# Method in brief: (§1)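 Columns mapping to the same glycan were averaged after glycan names were converted to IUPAC-condensed notation. The data come from 3228 arrays in the Consortium for Functional Glycomics database, limited to those with an available protein sequence. Binding is reported as a within-array Z-score averaged across arrays of one protein sequence and across linkers.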
# [2] = target: Neu5Ac(a2-3)Gal(b1-4)GlcNAc(b1-6)[Gal(b1-3)]GalNAc
# Method in brief: as §1
# [3] = target: Neu5Ac(a2-3)Gal(b1-4)GlcNAc(b1-6)[Neu5Ac(a2-3)Gal(b1-3)]GalNAc
# Method in brief: as §1
# [4] = target: Neu5Ac(a2-3)Gal(b1-4)GlcNAc6S
# Method in brief: as §1
# [5] = target: Neu5Ac(a2-3)Gal(b1-4)[Fuc(a1-3)]GlcNAc
# Method in brief: as §1
# [6] = target: Neu5Ac(a2-3)Gal(b1-4)[Fuc(a1-3)]GlcNAc(b1-2)Man
# Method in brief: as §1
# [7] = target: Neu5Ac(a2-3)Gal(b1-4)[Fuc(a1-3)]GlcNAc(b1-3)Gal
# Method in brief: as §1
# [8] = target: Neu5Ac(a2-3)Gal(b1-4)[Fuc(a1-3)]GlcNAc(b1-3)Gal(b1-4)GlcNAc
# Method in brief: as §1
# [9] = target: Neu5Ac(a2-3)Gal(b1-4)[Fuc(a1-3)]GlcNAc(b1-3)Gal(b1-4)[Fuc(a1-3)]GlcNAc(b1-3)Gal(b1-4)[Fuc(a1-3)]GlcNAc
# Method in brief: as §1
# [10] = target: Neu5Ac(a2-3)Gal(b1-4)[Fuc(a1-3)]GlcNAc(b1-3)GalNAc
# Method in brief: as §1
# [11] = target: Neu5Ac(a2-3)Gal(b1-4)[Fuc(a1-3)]GlcNAc(b1-6)[Gal(b1-3)]GalNAc
# Method in brief: as §1
# [12] = target: Neu5Ac(a2-3)Gal(b1-4)[Fuc(a1-3)]GlcNAc(b1-6)[Neu5Ac(a2-3)Gal(b1-3)]GalNAc
# Method in brief: as §1
# [13] = target: Neu5Ac(a2-3)Gal(b1-4)[Fuc(a1-3)]GlcNAc6S
# Method in brief: as §1
# [14] = target: Neu5Ac(a2-3)Gal6S(b1-4)GlcNAc
# Method in brief: as §1
# [15] = target: Neu5Ac(a2-3)Gal6S(b1-4)[Fuc(a1-3)]GlcNAc
# Method in brief: as §1
# [16] = target: Neu5Ac(a2-3)GalNAc
# Method in brief: as §1
# [17] = target: Neu5Ac(a2-3)GalNAc(b1-4)GlcNAc
# Method in brief: as §1
# [18] = target: Neu5Ac(a2-3)[GalNAc(b1-4)]Gal(b1-4)Glc
# Method in brief: as §1
# [19] = target: Neu5Ac(a2-3)[GalNAc(b1-4)]Gal(b1-4)GlcNAc
# Method in brief: as §1
# [20] = target: Neu5Ac(a2-3)[GalNAc(b1-4)]Gal(b1-4)GlcNAc(b1-3)GalNAc
# Method in brief: as §1
# [21] = target: Neu5Ac(a2-3)[Neu5Ac(a2-6)]GalNAc
# Method in brief: as §1
# [22] = target: Neu5Ac(a2-6)Gal
# Method in brief: as §1
# [23] = target: Neu5Ac(a2-6)Gal(b1-3)GlcNAc(b1-3)[Gal(b1-4)GlcNAc(b1-6)]Gal(b1-4)Glc
# Method in brief: as §1
# [24] = target: Neu5Ac(a2-6)Gal(b1-4)Glc
# Method in brief: as §1
# [25] = target: Neu5Ac(a2-6)Gal(b1-4)GlcNAc
# Method in brief: as §1
# [26] = target: Neu5Ac(a2-6)Gal(b1-4)GlcNAc(b1-2)Man
# Method in brief: as §1
# [27] = target: Neu5Ac(a2-6)Gal(b1-4)GlcNAc(b1-2)Man(a1-3)Man(b1-4)GlcNAc(b1-4)GlcNAc
# Method in brief: as §1
# [28] = target: Neu5Ac(a2-6)Gal(b1-4)GlcNAc(b1-2)Man(a1-3)[Gal(b1-4)GlcNAc(b1-2)Man(a1-6)]Man(b1-4)GlcNAc(b1-4)GlcNAc
# Method in brief: as §1
# [29] = target: Neu5Ac(a2-6)Gal(b1-4)GlcNAc(b1-2)Man(a1-3)[GlcNAc(b1-2)Man(a1-6)]Man(b1-4)GlcNAc(b1-4)GlcNAc
# Method in brief: as §1
# [30] = target: Neu5Ac(a2-6)Gal(b1-4)GlcNAc(b1-2)Man(a1-3)[GlcNAc(b1-4)][Neu5Ac(a2-6)Gal(b1-4)GlcNAc(b1-2)Man(a1-6)]Man(b1-4)GlcNAc(b1-4)GlcNAc
# Method in brief: as §1
binder,measurement,setting,value
B1,glycan array binding signal (z-score),[1],-0.639
same,glycan array binding signal (z-score),[2],-0.723
same,glycan array binding signal (z-score),[3],0.33
same,glycan array binding signal (z-score),[4],-0.149
same,glycan array binding signal (z-score),[5],-0.377
same,glycan array binding signal (z-score),[6],-0.79
same,glycan array binding signal (z-score),[7],-0.528
same,glycan array binding signal (z-score),[8],0.262
same,glycan array binding signal (z-score),[9],-0.664
same,glycan array binding signal (z-score),[10],0.296
same,glycan array binding signal (z-score),[11],0.551
same,glycan array binding signal (z-score),[12],-0.025
same,glycan array binding signal (z-score),[13],-0.045
same,glycan array binding signal (z-score),[14],1.17
same,glycan array binding signal (z-score),[15],-0.633
same,glycan array binding signal (z-score),[16],0.272
same,glycan array binding signal (z-score),[17],-0.105
same,glycan array binding signal (z-score),[18],-0.734
same,glycan array binding signal (z-score),[19],-0.587
same,glycan array binding signal (z-score),[20],0.078
same,glycan array binding signal (z-score),[21],0.574
same,glycan array binding signal (z-score),[22],0.129
same,glycan array binding signal (z-score),[23],-0.366
same,glycan array binding signal (z-score),[24],-0.402
same,glycan array binding signal (z-score),[25],-0.468
same,glycan array binding signal (z-score),[26],1.04
same,glycan array binding signal (z-score),[27],-0.203
same,glycan array binding signal (z-score),[28],-0.29
same,glycan array binding signal (z-score),[29],0.095
same,glycan array binding signal (z-score),[30],-0.203

# Random excerpt: two entries already listed
binder,measurement,setting,value
B1,glycan array binding signal (z-score),[13],-0.045
same,glycan array binding signal (z-score),[11],0.551
